These are yes or no findings as the source states them, for the method shown. Binding seen in cells or lysates may run through a third protein. Some results given as binding are weak or reduced against the parent protein; the word gives no strength. For part of these data: Sequences can lack the tags named with a protein.

Experiment [1] concerns the target T1, GSDMD, endogenous in THP-1-derived macrophages (human (endogenous in THP-1)) (UniProt P57764).
T1 sequence: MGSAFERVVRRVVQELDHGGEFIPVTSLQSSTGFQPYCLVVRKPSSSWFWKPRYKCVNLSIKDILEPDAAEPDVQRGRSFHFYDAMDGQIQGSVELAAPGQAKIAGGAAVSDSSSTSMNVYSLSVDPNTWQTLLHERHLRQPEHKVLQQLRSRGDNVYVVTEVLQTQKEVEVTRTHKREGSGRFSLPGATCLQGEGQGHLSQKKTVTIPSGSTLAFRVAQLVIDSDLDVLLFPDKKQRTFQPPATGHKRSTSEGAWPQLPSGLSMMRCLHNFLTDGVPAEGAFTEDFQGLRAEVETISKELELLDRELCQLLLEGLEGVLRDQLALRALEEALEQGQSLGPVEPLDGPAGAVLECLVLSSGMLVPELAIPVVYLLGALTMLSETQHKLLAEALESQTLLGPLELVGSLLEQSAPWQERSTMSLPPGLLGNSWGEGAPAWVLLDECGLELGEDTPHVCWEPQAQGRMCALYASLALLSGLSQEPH
Briefly: co-IP; endogenous proteins in THP-1-derived macrophages (mock, LPS, LPS plus ATP, poly(dA:dT) or flagellin; wild type, USP18-KD or USP18-KO); antibodies plus Protein A/G beads at 4 °C overnight.

Experiment [2] deals with T2, Flag-GSDMD, wild type (human) (UniProt P57764).
T2 sequence: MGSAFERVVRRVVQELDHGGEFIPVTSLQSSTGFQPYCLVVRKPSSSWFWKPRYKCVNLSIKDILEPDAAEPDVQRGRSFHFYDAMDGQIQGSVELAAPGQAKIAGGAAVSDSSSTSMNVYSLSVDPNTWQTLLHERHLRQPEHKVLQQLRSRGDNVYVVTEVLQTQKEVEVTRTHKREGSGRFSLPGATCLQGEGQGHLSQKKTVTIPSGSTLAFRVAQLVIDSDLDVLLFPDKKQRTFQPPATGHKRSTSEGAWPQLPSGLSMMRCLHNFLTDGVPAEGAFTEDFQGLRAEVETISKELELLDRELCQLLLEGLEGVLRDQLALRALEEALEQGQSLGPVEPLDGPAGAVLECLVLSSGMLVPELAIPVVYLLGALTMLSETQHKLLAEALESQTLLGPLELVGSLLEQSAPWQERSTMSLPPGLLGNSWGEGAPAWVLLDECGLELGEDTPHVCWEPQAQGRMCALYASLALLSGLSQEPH
Briefly: co-IP; HEK293T cells transfected with tagged proteins; lysates with anti-Flag or anti-Myc beads at 4 °C overnight, washed with low-salt lysis buffer (50 mM HEPES pH 8.0, 150 mM NaCl, 1% Triton X-100); Fig. 3M to O after Baf A1 (0.2 μM, 6 h).

Experiment [3] deals with T3, GSDMD, wild type, as used in the co-precipitations of the supplementary figures (S1D, S2Q, S5C, S6D, S6E) (human) (UniProt P57764).
T3 sequence: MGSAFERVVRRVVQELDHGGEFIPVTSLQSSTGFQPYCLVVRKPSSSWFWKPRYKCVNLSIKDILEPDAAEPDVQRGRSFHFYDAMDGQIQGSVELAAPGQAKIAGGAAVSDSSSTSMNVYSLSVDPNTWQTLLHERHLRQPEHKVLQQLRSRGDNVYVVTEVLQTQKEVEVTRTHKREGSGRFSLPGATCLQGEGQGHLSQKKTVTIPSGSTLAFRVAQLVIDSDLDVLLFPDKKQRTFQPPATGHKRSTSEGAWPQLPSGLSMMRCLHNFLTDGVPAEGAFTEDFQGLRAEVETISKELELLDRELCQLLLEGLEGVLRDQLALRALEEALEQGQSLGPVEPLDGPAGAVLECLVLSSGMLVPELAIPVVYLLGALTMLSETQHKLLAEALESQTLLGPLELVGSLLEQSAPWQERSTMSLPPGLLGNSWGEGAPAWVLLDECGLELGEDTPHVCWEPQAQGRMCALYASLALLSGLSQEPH
In words: co-IP; co-precipitations of the supplementary figures (S1D, S2Q, S5A to C, S6D and E); legends not shown; HEK293T cells where the text tells; S2Q with control or USP18 knock-down, S5C with overexpressed USP18 or USP18 C64A.

For experiment [4], the target named is T4, USP18, as used in the co-precipitations of the supplementary figures (S1D, S5A, S5B, S6D) (UniProt Q9UMW8).
T4 sequence: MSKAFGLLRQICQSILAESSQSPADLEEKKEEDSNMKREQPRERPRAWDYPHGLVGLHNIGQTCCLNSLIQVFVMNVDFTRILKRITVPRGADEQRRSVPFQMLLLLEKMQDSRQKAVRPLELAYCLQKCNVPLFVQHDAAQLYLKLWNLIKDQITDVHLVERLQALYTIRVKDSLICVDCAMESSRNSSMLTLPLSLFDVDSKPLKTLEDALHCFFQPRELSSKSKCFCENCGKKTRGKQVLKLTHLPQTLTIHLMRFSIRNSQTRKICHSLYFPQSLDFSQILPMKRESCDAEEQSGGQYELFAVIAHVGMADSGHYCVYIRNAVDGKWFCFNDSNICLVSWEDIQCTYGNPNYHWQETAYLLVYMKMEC
The description is as above.

Experiment [5] has as its target T5, Flag-GSDMD K168R (human) (UniProt P57764).
T5 sequence: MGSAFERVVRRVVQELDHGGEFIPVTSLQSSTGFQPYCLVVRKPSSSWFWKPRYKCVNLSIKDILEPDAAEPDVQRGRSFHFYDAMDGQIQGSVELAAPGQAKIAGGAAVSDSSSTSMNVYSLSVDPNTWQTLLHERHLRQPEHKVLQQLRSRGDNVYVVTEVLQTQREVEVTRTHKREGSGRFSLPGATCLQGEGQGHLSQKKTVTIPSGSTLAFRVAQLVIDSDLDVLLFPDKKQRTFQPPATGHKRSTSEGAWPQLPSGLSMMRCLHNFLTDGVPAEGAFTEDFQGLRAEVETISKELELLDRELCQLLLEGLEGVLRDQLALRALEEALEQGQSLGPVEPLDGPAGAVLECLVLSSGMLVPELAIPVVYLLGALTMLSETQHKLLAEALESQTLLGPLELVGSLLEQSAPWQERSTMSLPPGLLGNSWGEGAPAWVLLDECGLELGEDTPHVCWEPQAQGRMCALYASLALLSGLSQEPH
In words: co-IP; BECN1-KO HEK293T cells transfected with Myc-CASP1 or Myc-CASP4 and Flag-GSDMD WT or K168R for 24 h; level of co-precipitated Myc-CASP1/4 quantified.

In experiment [6] the target is T2, Flag-GSDMD, wild type (human). The experiment is described as above.

B1: NDP52, endogenous in THP-1-derived macrophages (protein, UniProt Q13137 1-446)
chain: MEETIKDPPTSAVLLDHCHFSQVIFNSVEKFYIPGGDVTCHYTFTQHFIPRRKDWIGIFRVGWKTTREYYTFMWVTLPIDLNNKSAKQQEVQFKAYYLPKDDEYYQFCYVDEDGVVRGASIPFQFRPENEEDILVVTTQGEVEEIEQHNKELCKENQELKDSCISLQKQNSDMQAELQKKQEELETLQSINKKLELKVKEQKDYWETELLQLKEQNQKMSSENEKMGIRVDQLQAQLSTQEKEMEKLVQGDQDKTEQLEQLKKENDHLFLSLTEQRKDQKKLEQTVEQMKQNETTAMKKQQELMDENFDLSKRLSENEIICNALQRQKERLEGENDLLKRENSRLLSYMGLDFNSLPYQVPTSDEGGARQNPGLAYGNPYSGIQESSSPSPLSIKKCPICKADDICDHTLEQQQMQPLCFNCPICDKIFPATEKQIFEDHVFCHSL
On to B1, for which the binding entry in experiment [1] is given as “binds”.

B2: HA-NDP52 (protein, UniProt Q13137 1-446)
chain: MEETIKDPPTSAVLLDHCHFSQVIFNSVEKFYIPGGDVTCHYTFTQHFIPRRKDWIGIFRVGWKTTREYYTFMWVTLPIDLNNKSAKQQEVQFKAYYLPKDDEYYQFCYVDEDGVVRGASIPFQFRPENEEDILVVTTQGEVEEIEQHNKELCKENQELKDSCISLQKQNSDMQAELQKKQEELETLQSINKKLELKVKEQKDYWETELLQLKEQNQKMSSENEKMGIRVDQLQAQLSTQEKEMEKLVQGDQDKTEQLEQLKKENDHLFLSLTEQRKDQKKLEQTVEQMKQNETTAMKKQQELMDENFDLSKRLSENEIICNALQRQKERLEGENDLLKRENSRLLSYMGLDFNSLPYQVPTSDEGGARQNPGLAYGNPYSGIQESSSPSPLSIKKCPICKADDICDHTLEQQQMQPLCFNCPICDKIFPATEKQIFEDHVFCHSL
Turning to B2, in experiment [2], the binding result is listed as “binds”.

B3: CALCOCO2/NDP52, as used in Fig. S2Q (protein, UniProt Q13137 1-446)
chain: MEETIKDPPTSAVLLDHCHFSQVIFNSVEKFYIPGGDVTCHYTFTQHFIPRRKDWIGIFRVGWKTTREYYTFMWVTLPIDLNNKSAKQQEVQFKAYYLPKDDEYYQFCYVDEDGVVRGASIPFQFRPENEEDILVVTTQGEVEEIEQHNKELCKENQELKDSCISLQKQNSDMQAELQKKQEELETLQSINKKLELKVKEQKDYWETELLQLKEQNQKMSSENEKMGIRVDQLQAQLSTQEKEMEKLVQGDQDKTEQLEQLKKENDHLFLSLTEQRKDQKKLEQTVEQMKQNETTAMKKQQELMDENFDLSKRLSENEIICNALQRQKERLEGENDLLKRENSRLLSYMGLDFNSLPYQVPTSDEGGARQNPGLAYGNPYSGIQESSSPSPLSIKKCPICKADDICDHTLEQQQMQPLCFNCPICDKIFPATEKQIFEDHVFCHSL
With B3, the binding entry in experiment [3] is on record as “binds”.

B4: GSDMD, wild type, as used in the co-precipitations of the supplementary figures (S1D, S2Q, S5C, S6D, S6E) (protein, UniProt P57764 1-484)
chain: MGSAFERVVRRVVQELDHGGEFIPVTSLQSSTGFQPYCLVVRKPSSSWFWKPRYKCVNLSIKDILEPDAAEPDVQRGRSFHFYDAMDGQIQGSVELAAPGQAKIAGGAAVSDSSSTSMNVYSLSVDPNTWQTLLHERHLRQPEHKVLQQLRSRGDNVYVVTEVLQTQKEVEVTRTHKREGSGRFSLPGATCLQGEGQGHLSQKKTVTIPSGSTLAFRVAQLVIDSDLDVLLFPDKKQRTFQPPATGHKRSTSEGAWPQLPSGLSMMRCLHNFLTDGVPAEGAFTEDFQGLRAEVETISKELELLDRELCQLLLEGLEGVLRDQLALRALEEALEQGQSLGPVEPLDGPAGAVLECLVLSSGMLVPELAIPVVYLLGALTMLSETQHKLLAEALESQTLLGPLELVGSLLEQSAPWQERSTMSLPPGLLGNSWGEGAPAWVLLDECGLELGEDTPHVCWEPQAQGRMCALYASLALLSGLSQEPH
For the molecule B4, the binding result in experiment [4] is “binds”.

B5: Myc-caspase-4 (enzyme, UniProt P49662 1-377)
chain: MAEGNHRKKPLKVLESLGKDFLTGVLDNLVEQNVLNWKEEEKKKYYDAKTEDKVRVMADSMQEKQRMAGQMLLQTFFNIDQISPNKKAHPNMEAGPPESGESTDALKLCPHEEFLRLCKERAEEIYPIKERNNRTRLALIICNTEFDHLPPRNGADFDITGMKELLEGLDYSVDVEENLTARDMESALRAFATRPEHKSSDSTFLVLMSHGILEGICGTVHDEKKPDVLLYDTIFQIFNNRNCLSLKDKPKVIIVQACRGANRGELWVRDSPASLEVASSQSSENLEEDAVYKTHVEKDFIAFCSSTPHNVSWRDSTMGSIFITQLITCFQKYSWCCHLEEVFRKVQQSFETPRAKAQMPTIERLSMTRYFYLFPGN
As to B5, the binding entry in experiment [5] and in experiment [6] was “binds” in each case.

(Values after article PMC11109516.)
